These are yes or no findings as the source states them, for the method shown. In cells and extracts the contact can be indirect. A yes stands for co-enrichment or nearness to the bait. Other partners may have been found.
Biological target: ankyrin repeat and BTB domain-containing protein 2 (ABTB2) (UniProt Q7TQI7)
Experiment: affinity purification with mass spectrometry; lysate of Panc02 (ABTB2-OE) cells incubated with Protein A Dynabeads preloaded with anti-ABTB2 antibody, 10 min, washed 3 times, mild elution; Bruker timsTOF Pro

binding: binds
B1: tumour necrosis factor receptor-associated protein 1 (TRAP1) (protein, UniProt Q9CQN1 61-706)
chain: STQAAEDKEEESLHSIISNTEAVRGSVSKHEFQAETKKLLDIVARSLYSEKEVFIRELISNASDALEKLRHKLVCEGQVLPEMEIHLQTDAKKGTITIQDTGIGMTQEELVSNLGTIARSGSKAFLEALQNQAETSSKIIGQFGVGFYSAFMVADKVEVYSRSAAPESPGYQWLSDGSGVFEIAEASGVRPGTKIIIHLKSDCKDFASESRVQDVVTKYSNFVSFPLYLNGKRINTLQAIWMMDPKDISEFQHEEFYRYIAQAYDKPRFTLHYKTDAPLNIRSIFYVPEMKPSMFDVSRELGSSVALYSRKVLIQTKAADILPKWLRFIRGVVDSEDIPLNLSRELLQESALIRKLRDVLQQRLIKFFIDQSKKDAEKYAKFFEDYGLFMREGIVTTAEQDIKEDIAKLLRYESSALPAGQLTSLPDYASRMQAGTRNIYYLCAPNRHLAEHSPYYEAMKQKHTEVLFCYEQFDELTLLHLREFDKKKLISVETDIVVDHYKEEKFEDTSPADERLSEKETEDLMAWMRNALGSRVTNVKVTFRLDTHPAMVTVLEMGAARHFLRMQQLAKTQEERAQLLQPTLEINPRHTLIKKLCQLRESEPELAQLLVDQIYENAMIAAGLVDDPRAMVGRLNDLLVKVLEKH
